Reference: PubChem BioAssay AID1259254 (NCATS, 2017)
The deposit covers about 59,000 reagents; this is an unselected part. Over the whole deposit, about 1,550 (2.6%) are marked active. 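G2 share is only a proxy for re-replication; each gene was hit by three separate siRNAs, and active genes were retested.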 Raw values are not corrected between plates. Reagents against one gene are numbered here. Not given: the amount of reagent.

Purpose: 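Genome-wide screen for genes that prevent DNA re-replication in cancer cells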 (primary screen)
Cell system: human HCT116 colorectal cancer cells
Reagents: single siRNA against human genes
Duration: 3 days
Measured: 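Imaged Hoechst DNA stain sorts each cell into a cycle phase by DNA amount; per plate, G2 fraction set to 0% for non-targeting and 100% for GMNN siRNA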
Scale: G2 robust z-score and G2 cells, % of GMNN control: higher = more G2 cells, more excess DNA replication; raw share of cells in G2: higher = larger share of cells with G2 DNA content
Hit rule: 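An siRNA counts as active if its G2 robust z-score lies at least 5 MADs above the screen median; here such calls match roughly 38% of GMNN control or more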

no.	target gene	siRNA no.	G2 robust z-score	G2 cells, % of GMNN control	raw share of cells in G2 (%)	activity call
1	IQCH	1	-0.31	0.788	5.83	inactive
2	IQCH	2	-0.764	-2.41	4.32	inactive
3	IQCH	3	0.881	9.17	6.62	inactive
4	GLRA2	1	0.366	5.54	7.3	inactive
5	GLRA2	2	0.129	3.88	6.09	inactive
6	GLRA2	3	0.947	9.63	8.13	inactive
7	ITIH3	1	-0.411	0.0724	5.71	inactive
8	ITIH3	2	-1.34	-6.45	1.84	inactive
9	ITIH3	3	-1.44	-7.19	2.43	inactive
10	XCR1	1	-0.25	1.21	6.27	inactive
11	XCR1	2	1	10	8.02	inactive
12	XCR1	3	-1.14	-5.05	1.72	inactive
13	LINC01776	1	-0.547	-0.879	2.85	inactive
14	LINC01776	2	0.238	4.64	5.92	inactive
15	LINC01776	3	-0.118	2.14	3.94	inactive
16	ACTMAP	1	-0.0666	2.5	4.55	inactive
17	ACTMAP	2	-1.22	-5.63	0.866	inactive
18	ACTMAP	3	1.4	12.8	7.16	inactive
19	LDHD	1	-0.742	-2.25	3.75	inactive
20	LDHD	2	-1.22	-5.6	3.28	inactive
21	LDHD	3	0.284	4.97	6.52	inactive
22	DRICH1	1	-0.734	-2.2	3.01	inactive
23	DRICH1	2	-1.12	-4.94	2.68	inactive
24	DRICH1	3	0.842	8.89	6.06	inactive
25	MRPS2	1	-0.386	0.25	3.95	inactive
26	MRPS2	2	0.204	4.4	6.21	inactive
27	MRPS2	3	4.76	36.4	14.7	inactive
28	CAMKK1	1	0.261	4.8	7.08	inactive
29	CAMKK1	2	-0.00231	2.95	6.26	inactive
30	CAMKK1	3	2.52	20.7	10.3	inactive
31	KRT33A	1	0.0524	3.34	5.42	inactive
32	KRT33A	2	0.812	8.68	8.99	inactive
33	KRT33A	3	4.09	31.8	16.6	inactive

In a second layout: 9 of the entries above.
target gene	siRNA no.	G2 robust z-score	G2 cells, % of GMNN control	raw share of cells in G2 (%)	activity call
XCR1	2	1	10	8.02	inactive
XCR1	3	-1.14	-5.05	1.72	inactive
LINC01776	1	-0.547	-0.879	2.85	inactive
LINC01776	2	0.238	4.64	5.92	inactive
LINC01776	3	-0.118	2.14	3.94	inactive
ACTMAP	1	-0.0666	2.5	4.55	inactive
ACTMAP	2	-1.22	-5.63	0.866	inactive
ACTMAP	3	1.4	12.8	7.16	inactive
LDHD	1	-0.742	-2.25	3.75	inactive

The listing continues:
no.	target gene	siRNA no.	G2 robust z-score	G2 cells, % of GMNN control	raw share of cells in G2 (%)	activity call
34	H1-10	1	0.0298	3.18	6.54	inactive
35	H1-10	2	0.0851	3.57	5.31	inactive
36	H1-10	3	-0.791	-2.59	2.43	inactive
37	ZNF347	1	0.278	4.92	4.53	inactive
38	ZNF347	2	0.672	7.7	9.39	inactive
39	ZNF347	3	-0.618	-1.38	3.2	inactive
40	PCID2	1	-0.138	2	5.29	inactive
41	PCID2	2	0.247	4.7	6.09	inactive
42	PCID2	3	0.0156	3.08	4.12	inactive
43	RXFP1	1	-0.642	-1.55	5.29	inactive
44	RXFP1	2	-0.85	-3.01	3.46	inactive
45	RXFP1	3	-0.078	2.42	4.01	inactive
46	KIFAP3	1	0.0384	3.24	4.97	inactive
47	KIFAP3	2	2.24	18.7	13.9	inactive
48	KIFAP3	3	1.88	16.2	9.58	inactive
49	OR4C46	1	-0.37	0.361	4.24	inactive
50	OR4C46	2	1.34	12.4	7.02	inactive
51	OR4C46	3	-0.733	-2.19	1.18	inactive
52	ZSCAN2	1	-0.743	-2.26	3.39	inactive
53	ZSCAN2	2	1.26	11.8	11.6	inactive
54	ZSCAN2	3	-0.386	0.25	4.53	inactive
55	ACTR3B	1	0.862	9.03	7.51	inactive
56	ACTR3B	2	3.67	28.8	14.5	inactive
57	ACTR3B	3	-0.0664	2.5	6.68	inactive
58	OLFML1	1	-0.317	0.737	3.49	inactive
59	OLFML1	2	-1.28	-6.07	1.43	inactive
60	OLFML1	3	3.35	26.5	13.3	inactive
61	TLNRD1	1	-0.467	-0.318	4.22	inactive
62	TLNRD1	2	-0.721	-2.11	3.45	inactive
63	TLNRD1	3	1.87	16.1	8.13	inactive
64	LINC02167	1	-0.803	-2.68	2.45	inactive
65	LINC02167	2	2.8	22.7	14.2	inactive
66	LINC02167	3	0.878	9.14	7.14	inactive
67	MCTS1	1	0.0326	3.2	7.61	inactive
68	MCTS1	2	-0.991	-4.01	2.68	inactive
69	MCTS1	3	-0.996	-4.04	2.85	inactive
